# Source: the supplement of paper PMC3334620
# In all, about 33,000 sequences were measured (“E-score (-0.5 to 0.5)”: median about -0.0059, highest 2% from about 0.26 on). The list shows a part of the results.
# Biological target: T1, Cin5 (UniProt P40917)
# T1 sequence: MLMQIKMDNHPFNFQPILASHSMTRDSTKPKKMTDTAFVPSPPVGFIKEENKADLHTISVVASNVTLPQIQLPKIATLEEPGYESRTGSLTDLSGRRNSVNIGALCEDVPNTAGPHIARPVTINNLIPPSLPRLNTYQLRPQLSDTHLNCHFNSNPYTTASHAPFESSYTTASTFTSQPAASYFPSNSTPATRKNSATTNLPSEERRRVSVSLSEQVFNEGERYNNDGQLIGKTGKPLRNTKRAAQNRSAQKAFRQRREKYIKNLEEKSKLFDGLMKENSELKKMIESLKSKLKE
# Test: PBM E-score (8-mer binding enrichment) (E-score (-0.5 to 0.5)); higher = stronger / more preferred TF binding
# Details: protein concentration: 100 nM; construct: GST-full length
# How it was run: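 Bound GST-tagged yeast transcription factors, applied at about 100-200 nM to double-stranded universal all-10-mer Agilent arrays, were detected with fluorescent anti-GST. Scans were normalised with masliner. A modified Wilcoxon-Mann-Whitney statistic, the E-score, was assigned to each ungapped eight-base word pooled with its reverse complement by the Universal PBM Analysis Suite.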
row,Sequence,PBM E-score
1,CTCTACTC,-0.0607
2,AAACTAGA,-0.116
3,AGAACTTA,0.0465
4,ACCTAGGG,-0.151
5,CTTTCGAA,-0.177
6,ATAGGTAC,0.0417
7,AGACCATG,-0.159
8,AGTCATAG,0.066
9,TGAACACA,0.0378
10,GATGGCTA,0.0218
11,TAAGAGAA,-0.0351
12,CGAACAAC,0.103
13,ATAATACA,0.35
14,CGTCAGCC,0.121
15,GATGAACC,-0.0498
16,ATAGTCCG,-0.063
17,GATGGGCC,-0.229
18,AACTGGGG,0.126
19,CAGCCAAG,-0.00072
20,ATGTAACG,0.107
21,AAAGACAC,-0.0134
22,ATACTACC,-0.0132
23,CCCTTTCG,-0.219
24,AACTTCAC,0.0461
25,AGGCTAGC,-0.163

# An excerpt of these results, with bars between the fields.
row | Sequence | PBM E-score
1 | CTCTACTC | -0.0607
4 | ACCTAGGG | -0.151
14 | CGTCAGCC | 0.121
18 | AACTGGGG | 0.126
19 | CAGCCAAG | -0.00072

# (further entries)

row,Sequence,PBM E-score
1,AGTTCTAG,-0.0375
2,AAAGTCAC,-0.0129
3,CCACATAG,-0.0996
4,TCACTACA,0.185
5,CCCCCTAA,-0.368
6,AAAAAGCA,0.0522
7,GAGTTCAC,-0.015
8,TACCAATA,0.176
9,AAAGGATG,0.0722
10,ACCGTGCT,-0.203
11,GGACCGCC,-0.269
12,TCGGATCA,0.0229
13,CTCCTGAC,-0.00526
14,CGCTCGAC,-0.205
15,CAGGTATG,0.0898
16,AGTATTGG,-0.0176
17,CTTAGCGC,0.236
18,CAGTAAGG,-0.0464
19,AAACGAAT,0.0912
20,AGAACGAC,0.00763
21,AGCGTCTG,-0.244
22,ACCCTTAG,-0.101
23,ATCGTTCC,-0.121
24,TATTCAGA,0.126
25,AAACGTAA,0.234

row,Sequence,PBM E-score
1,ATATCACA,0.109
2,AGATGGTA,0.137
3,CAAGGGAC,-0.266
4,CACGGGTA,-0.0916
5,CTGCTAAA,-0.0894
6,GCGGGACA,0.0261
7,AGTTACAT,0.139
8,CGTGGCGC,-0.163
9,TAGATTCA,-0.16
10,CCCGGACA,-0.0103
11,TAACGTAA,0.415
12,ATCCAGCC,-0.0528
13,CTTATGTA,0.361
14,ACACGCGA,0.0888
15,CGGACAGA,0.0292
16,CAACTAGC,0.216
17,GTGCGTCA,-0.0416
18,CTTTTAAC,0.0121
19,GTGCCGTA,0.0613
20,GGTACGCA,0.00265
21,ACGCCTAG,-0.186
22,AAACGGTT,-0.121
23,CGGGTCAC,-0.106
24,CGTATCAG,0.0873
25,AGAATCGA,0.108

row,Sequence,PBM E-score
1,CACGAGAC,-0.11
2,CCGAACTA,0.128
3,ATTCAGAG,0.0844
4,GTCGGTCA,-0.0877
5,CCCGTTCG,-0.0149
6,ACCTCCAT,-0.116
7,AGACTGAA,-0.0521
8,AACTTGGT,0.131
9,AAAGTCCG,-0.203
10,AAAGAGTT,-0.0825
11,AAACAACC,0.117
12,GTTAGAAA,0.0402
13,GTGAGAAA,0.0748
14,CCGCCAAC,-0.0891
15,CCACGGGG,-0.282
16,AGAGAGGA,0.00084
17,CTTAAGCA,-0.00662
18,ATTTCTGC,0.247
19,GCCGTACA,0.0522
20,CCCGCATA,0.187
21,CTCTCAGA,-0.231
22,ACTCGTGG,-0.041
23,CAGATAAC,0.168
24,AGCCAATG,-0.073
25,ACCGTTAG,-0.0991

row,Sequence,PBM E-score
1,CCTATTAA,0.111
2,AATATGAC,0.163
3,ACCGGTAA,-0.0426
4,GTGTCGTA,0.0698
5,GAGGAGGA,-0.291
6,CCCTGCCG,-0.205
7,AATTATTG,0.212
8,GCACCTGA,-0.0738
9,GCAAGGAC,-0.0776
10,AAGACAAC,0.274
11,GCGGAAAA,0.213
12,ACCATGAC,0.12
13,AAGTCTAG,-0.264
14,ACACAGTA,-0.0345
15,ATTTGACC,0.0627
16,ACCCTGAT,-0.0343
17,AACGATGG,-0.021
18,ACAGAACT,0.0514
19,AATCTAAA,0.0428
20,CTGATATC,0.0795
21,AGATGAGA,-0.071
22,ATCACCAC,0.204
23,ATAAGGGC,0.112
24,ACTTAGCG,0.181
25,AGGCAAAC,0.0172

row,Sequence,PBM E-score
1,CAGTAGTC,-0.238
2,GTCGAACA,0.0829
3,ACTTTGAA,-0.0699
4,CACCGCTC,-0.048
5,ATGATATG,0.289
6,GTGCACGA,-0.0614
7,CAGAGAGG,-0.0926
8,GGAGTGAC,0.0786
9,CCTTCTCG,-0.251
10,ATTGACTA,0.0626
11,CCAGGGAG,-0.295
12,CTCTTGGA,-0.0707
13,GAAATCTC,-0.0158
14,GGCCGTCA,-0.15
15,AGAAGGGG,-0.205
16,CATCCTTA,-0.0316
17,CCTGCGCG,0.00073
18,CCGCCTCA,-0.235
19,ACATTCAC,0.093
20,CGAAGATA,0.266
21,ACGTTAAC,0.0708
22,ATTTGATG,0.0427
23,CCACCATA,0.0512
24,ACGCTCTG,-0.193
25,GTCTCCCA,-0.151

row,Sequence,PBM E-score
1,AAACACTC,0.205
2,AGGATCTC,-0.145
3,CAACCGAC,0.16
4,CTGCACAA,-0.064
5,AGCACACA,-0.064
6,ATGGGTGC,0.00547
7,CTTCGTGA,0.0432
8,AGGAGTCC,-0.266
9,ATCATCCG,-0.0161
10,TCGGCACA,-0.116
11,GACGGCCC,-0.339
12,ACCCGGCT,-0.173
13,CCGAGTTA,-0.00537
14,TCTGCACA,-0.00335
15,GACTGTTA,-0.0856
16,CTGTTCCA,-0.0206
17,AAGCAGGC,-0.264
18,CCTCCGAG,-0.16
19,TGCAAGAA,0.0873
20,GAATGGAA,0.181
21,GGATCGGA,0.0109
22,AAGGGTAA,-0.00876
